## Library screen at single concentrations

From ChEMBL document CHEMBL3988442, “University of Dundee, Small-Polar-MMV Screening Library” (2021).

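Whole-parasite assay of Trypanosoma brucei over 72 hours; the read-out is not stated. Compounds at 30 µM. Direction is inferred from retests: higher values go with stronger inhibition. Values scatter widely below zero; nearly all retest evidence comes from the higher of the two concentrations used. Size under these conditions: about 64,000 compounds, about 940 of them at 50% or above in at least one test.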

Each number is a percent effect as filed.
The controls that fix the scale are not given in the record; negative values are as filed.
Compounds were drawn at random from those tested, without regard to their results.

{"smiles": "O=C(Nc1nc2c(s1)CN(S(=O)(=O)C1CC1)CC2)c1c(F)cccc1F", "Percent Effect": 43.84}
{"smiles": "COc1cccc(S(=O)(=O)CCN2CCCCC2)c1", "Percent Effect": -49.6}
{"smiles": "CN(C)Cc1nnc2n1CCN(Cc1cccnc1)C2", "Percent Effect": -19.25}
{"smiles": "Cc1nc(C)n(CC2CN(CC(=O)NC3CCCC3)CCO2)n1", "stereo": "stereo unspecified", "Percent Effect": -8.928}
{"smiles": "CN(C(=O)c1cccnc1OCC(F)F)c1ccc2c(c1)CCO2", "Percent Effect": -7.628}
{"smiles": "Cn1cc(N2CC3(CCN(S(C)(=O)=O)C3)CC2=O)cn1", "stereo": "stereo unspecified", "Percent Effect": -16.04}
{"smiles": "O=C(c1ccc(Cl)o1)N1CCCC(c2cc(C(F)(F)F)[nH]n2)C1", "stereo": "stereo unspecified", "Percent Effect": 38.4}
{"smiles": "CCOC(=O)N1CCC(N2Cc3ncccc3C2=O)CC1", "Percent Effect": -22.07}
{"smiles": "Cc1cc(C)c(CNC(=O)N2CCCC2c2ccccn2)c(=O)[nH]1", "stereo": "stereo unspecified", "Percent Effect": 15.82}
{"smiles": "c1cnc(-c2nn3c(CN4CCCCCC4)nnc3s2)cn1", "Percent Effect": -11.18}
{"smiles": "Cn1c(-c2ccccc2Cl)nc2cc(C(=O)NC(CO)CO)cnc21", "Percent Effect": 6.066}
{"smiles": "Cc1ccc(NC(=O)NCCc2ccncc2C)c(N(C)C)n1", "Percent Effect": -48.25}
{"smiles": "Cc1ccc(N2CCc3ncc(CNc4ccccn4)n3CC2)nn1", "Percent Effect": -27.15}
{"smiles": "CCc1nn(-c2cc(Oc3cccc(C)c3)nc(C)n2)c(N)c1C#N", "Percent Effect": -25.94}
{"smiles": "Cc1nc(C)n(C2CCCN(C(=O)c3ccc4c(c3)COC4)C2)n1", "stereo": "stereo unspecified", "Percent Effect": 22.1}
{"smiles": "Cc1cccc(CN2CCC3(CCCN(C(=O)N(C)C)C3)C2=O)n1.O=C(O)C(F)(F)F", "stereo": "stereo unspecified", "Percent Effect": -81.25}
{"smiles": "Cc1cccc(CN2CCCC2c2cccc(Nc3nccs3)n2)c1", "stereo": "stereo unspecified", "Percent Effect": 33.44}
{"smiles": "O=C(O)C(F)(F)F.[H][C@]12CN(Cc3cc(C)on3)C[C@@]1([H])OCCN(C(=O)c1ccco1)C2", "Percent Effect": -100.9}
{"smiles": "CCN1CCCC(C)(C(=O)NCc2nncn2CCc2ccccc2)C1", "stereo": "stereo unspecified", "Percent Effect": -21.1}
{"smiles": "Cc1ncc(CNC(=O)N(C)Cc2ccc([S+](C)[O-])cc2)s1", "stereo": "stereo unspecified", "Percent Effect": -21.3}
{"smiles": "N#Cc1cccc(N2CCC3(CCC(=O)N(CC(N)=O)C3)CC2)n1", "Percent Effect": -4.094}
{"smiles": "CC(Cn1cccn1)NCc1cnc(N2CCCC2)nc1", "stereo": "stereo unspecified", "Percent Effect": -20.17}
{"smiles": "O=C(NCc1ccccc1CN1CCC(O)CC1)Nc1ccncc1", "Percent Effect": -20.89}
{"smiles": "CCN1CCN(C2CCN(Cc3ccc(Cl)s3)CC2)C1=O", "Percent Effect": 5.516}
{"smiles": "COc1ccccc1N1CCC(CNCc2cccc(O)c2)C1", "stereo": "stereo unspecified", "Percent Effect": -1.533}
{"smiles": "Cn1ncc2c1CCCC2NCc1cccc2c1OCCCO2", "stereo": "stereo unspecified", "Percent Effect": 6.552}
{"smiles": "CC(N)Cc1ccccc1Sc1ccc(O)cc1.CC(N)Cc1ccccc1Sc1ccc(O)cc1.O=C(O)C(=O)O", "stereo": "stereo unspecified", "Percent Effect": 73.02}
{"smiles": "Cc1ncc(C)c(N2CCCC(CO)(Cc3cccc(Cl)c3)C2)n1", "stereo": "stereo unspecified", "Percent Effect": 33.14}
{"smiles": "COc1nc2c(cc1C(=O)N1CC[C@H](CO)[C@@H](O)C1)CCC2", "Percent Effect": -13.08}
{"smiles": "CN(Cc1ncnn1C)C(=O)CCCn1ccc2cc(Cl)ccc21", "Percent Effect": 19.77}
{"smiles": "COc1ccc(S(=O)(=O)C(F)(F)F)cc1NC(=O)CSCC#N", "Percent Effect": -13.3}
{"smiles": "COCCN1CCC2(CC1)CN(C(=O)Cc1cccnc1)CCO2.O=C(O)C(F)(F)F.O=C(O)C(F)(F)F", "Percent Effect": -0.3631}
{"smiles": "CCN1CC2(CC1=O)CN(Cc1ccccn1)CCN(C(C)=O)C2.O=C(O)C(F)(F)F.O=C(O)C(F)(F)F", "stereo": "stereo unspecified", "Percent Effect": -57.45}
{"smiles": "COc1ccc2c(c1)CCCC2CC(=O)O", "stereo": "stereo unspecified", "Percent Effect": -37.56}
{"smiles": "[H][C@@]12C[C@H](O)CCN1C(=O)CN(CCSc1ccccn1)C2=O", "Percent Effect": -26.04}
{"smiles": "CNC(=O)C(NC(=O)c1c(C)noc1C)c1ccc(F)c(F)c1", "stereo": "stereo unspecified", "Percent Effect": -70.38}
{"smiles": "c1coc(CN2CCn3c(CN4CCOCC4)nnc3C2)c1", "Percent Effect": -12.16}
{"smiles": "O=C(O)C(F)(F)F.O=C(O)C(F)(F)F.c1cn2c(n1)CN(C1CCOCC1)CC(CN1CCCC1)C2", "stereo": "stereo unspecified", "Percent Effect": -18.76}
{"smiles": "CN(C)C(CNCc1nc(-c2ccsc2)no1)c1cccc(F)c1", "stereo": "stereo unspecified", "Percent Effect": -172.4}
{"smiles": "CCN1CCC2(CC1)OCCN2C(=O)c1ccc(OC)c(Cl)c1.Cl", "Percent Effect": 50.46}
{"smiles": "CCOc1cc(CN(C)CC(=O)O)ccc1OC(F)F.Cl", "Percent Effect": -38.64}
{"smiles": "Cc1ccc(C(=O)Nc2cn[nH]c2)cn1", "Percent Effect": -18.89}
{"smiles": "CC(C)Cn1ccnc1CNC(=O)N1CCCC1CN1CCOCC1", "stereo": "stereo unspecified", "Percent Effect": -11.89}
{"smiles": "CN(C)C(=O)CNC(=O)c1ccc2ccc(N(C)CC3CC3)n2c1", "Percent Effect": -63.25}

Once more, the final 5:

With CCN1CCC2(CC1)OCCN2C(=O)c1ccc(OC)c(Cl)c1.Cl the screen gave 50.46%.
With CCOc1cc(CN(C)CC(=O)O)ccc1OC(F)F.Cl the screen gave -38.64%.
With Cc1ccc(C(=O)Nc2cn[nH]c2)cn1 the screen gave -18.89%.
With CC(C)Cn1ccnc1CNC(=O)N1CCCC1CN1CCOCC1 (stereo unspecified) the screen gave -11.89%.
With CN(C)C(=O)CNC(=O)c1ccc2ccc(N(C)CC3CC3)n2c1 the screen gave -63.25%.